Test results from publication PMC5902029.
Results are given in words; binding and its absence hold for the method and conditions named. Binding seen in cells or lysates may run through a third protein. A yes stands for co-enrichment or nearness to the bait. Other partners may have been found.

Amino acid sequences for entries named in this document (tags omitted). Residues count along the entry.
UniProt Q5NCH9, residues 24-871: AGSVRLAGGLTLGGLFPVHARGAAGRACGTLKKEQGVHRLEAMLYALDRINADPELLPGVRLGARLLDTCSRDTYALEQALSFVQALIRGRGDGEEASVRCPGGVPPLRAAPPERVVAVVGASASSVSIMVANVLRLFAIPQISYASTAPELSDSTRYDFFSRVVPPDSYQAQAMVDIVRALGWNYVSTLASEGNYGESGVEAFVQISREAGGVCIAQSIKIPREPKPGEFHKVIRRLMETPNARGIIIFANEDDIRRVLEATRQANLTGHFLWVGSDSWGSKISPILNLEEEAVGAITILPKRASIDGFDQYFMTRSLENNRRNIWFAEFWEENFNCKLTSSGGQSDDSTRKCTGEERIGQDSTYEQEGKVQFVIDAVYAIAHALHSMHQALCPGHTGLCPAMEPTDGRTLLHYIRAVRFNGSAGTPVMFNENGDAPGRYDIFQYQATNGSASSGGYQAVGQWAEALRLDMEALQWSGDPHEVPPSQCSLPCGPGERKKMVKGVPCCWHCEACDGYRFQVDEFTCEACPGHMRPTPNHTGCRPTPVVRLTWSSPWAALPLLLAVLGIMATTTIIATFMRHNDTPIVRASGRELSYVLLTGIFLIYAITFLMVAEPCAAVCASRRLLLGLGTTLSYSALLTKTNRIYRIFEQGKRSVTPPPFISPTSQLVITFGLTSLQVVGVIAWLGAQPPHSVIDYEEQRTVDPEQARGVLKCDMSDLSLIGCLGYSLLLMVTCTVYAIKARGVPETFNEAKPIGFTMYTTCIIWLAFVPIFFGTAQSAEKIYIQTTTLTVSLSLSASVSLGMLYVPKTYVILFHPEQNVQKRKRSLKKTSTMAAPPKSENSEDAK

Target: mGluR6 (metabotropic glutamate receptor 6), endogenous in mouse retina (mouse (endogenous in retina)) (UniProt Q5NCH9)
Experiment: affinity purification with mass spectrometry; immunoprecipitation with specific anti-mGluR6 antibodies from membrane fractions of the retina; eluates subjected to mass spectrometry

binding: binds
B1: LRIT1, endogenous in mouse retina (protein, UniProt Q8K099 22-624)
chain: FCPSECSCSLRILSDGSKARTVVCSDPDLTLPPASIPPDTCKLRLERTAIRRVPGETFRPLSRLEQLWLPYNALSELSALMLRGLRRLRELRLPGNRLVTFPWAALRDTPQLQLLDLQANRLSTLPPEAAHFLENLTFLDLSNNQLMRLPEELLDVWAHLKTGPFLSGHHARLILGLQDNPWVCDCRLYDLVHLLDGWVSSNLIFIEARLRCASPRSLAGVAFSQLELRKCQSPELRPGVTSIISPLGSTVLLRCGATGIPGPEMSWRRANGRPLNGTVHQEVSSDGSSWTLLDLPVVSLFDSGDYICQAKNFLGASETLISLIVTEPQTSTGYSGIPGVLWARTGEGAEAAAYNNKLVARHVPHMPEHVALATKPSMPSIKEELALQNFQMDVPGEFSREPSEHQEAQMVRSLKVVGDTYHSVSLVWKAPQAGNTTAFSVLYAVFGHRDMRRMTVEPGKTSVTIEGLAPKTKYVACVCVRGLVPTKEQCVIFSTDEVVDAEGTQRLINMVVISVAAIIALPPTLLVCCGALRRRCHKCRTGGSAEASGAYVNLERLGHSEDSSEVLSRSSLSEGDRLLSARSSLDSQVLGVRGGRRINEYFC
